The text below walks through data of paper PMC7368064.

Sequences of proteins named here, by UniProt entry; tags and fusion partners are left off.
UniProt E9PZQ0: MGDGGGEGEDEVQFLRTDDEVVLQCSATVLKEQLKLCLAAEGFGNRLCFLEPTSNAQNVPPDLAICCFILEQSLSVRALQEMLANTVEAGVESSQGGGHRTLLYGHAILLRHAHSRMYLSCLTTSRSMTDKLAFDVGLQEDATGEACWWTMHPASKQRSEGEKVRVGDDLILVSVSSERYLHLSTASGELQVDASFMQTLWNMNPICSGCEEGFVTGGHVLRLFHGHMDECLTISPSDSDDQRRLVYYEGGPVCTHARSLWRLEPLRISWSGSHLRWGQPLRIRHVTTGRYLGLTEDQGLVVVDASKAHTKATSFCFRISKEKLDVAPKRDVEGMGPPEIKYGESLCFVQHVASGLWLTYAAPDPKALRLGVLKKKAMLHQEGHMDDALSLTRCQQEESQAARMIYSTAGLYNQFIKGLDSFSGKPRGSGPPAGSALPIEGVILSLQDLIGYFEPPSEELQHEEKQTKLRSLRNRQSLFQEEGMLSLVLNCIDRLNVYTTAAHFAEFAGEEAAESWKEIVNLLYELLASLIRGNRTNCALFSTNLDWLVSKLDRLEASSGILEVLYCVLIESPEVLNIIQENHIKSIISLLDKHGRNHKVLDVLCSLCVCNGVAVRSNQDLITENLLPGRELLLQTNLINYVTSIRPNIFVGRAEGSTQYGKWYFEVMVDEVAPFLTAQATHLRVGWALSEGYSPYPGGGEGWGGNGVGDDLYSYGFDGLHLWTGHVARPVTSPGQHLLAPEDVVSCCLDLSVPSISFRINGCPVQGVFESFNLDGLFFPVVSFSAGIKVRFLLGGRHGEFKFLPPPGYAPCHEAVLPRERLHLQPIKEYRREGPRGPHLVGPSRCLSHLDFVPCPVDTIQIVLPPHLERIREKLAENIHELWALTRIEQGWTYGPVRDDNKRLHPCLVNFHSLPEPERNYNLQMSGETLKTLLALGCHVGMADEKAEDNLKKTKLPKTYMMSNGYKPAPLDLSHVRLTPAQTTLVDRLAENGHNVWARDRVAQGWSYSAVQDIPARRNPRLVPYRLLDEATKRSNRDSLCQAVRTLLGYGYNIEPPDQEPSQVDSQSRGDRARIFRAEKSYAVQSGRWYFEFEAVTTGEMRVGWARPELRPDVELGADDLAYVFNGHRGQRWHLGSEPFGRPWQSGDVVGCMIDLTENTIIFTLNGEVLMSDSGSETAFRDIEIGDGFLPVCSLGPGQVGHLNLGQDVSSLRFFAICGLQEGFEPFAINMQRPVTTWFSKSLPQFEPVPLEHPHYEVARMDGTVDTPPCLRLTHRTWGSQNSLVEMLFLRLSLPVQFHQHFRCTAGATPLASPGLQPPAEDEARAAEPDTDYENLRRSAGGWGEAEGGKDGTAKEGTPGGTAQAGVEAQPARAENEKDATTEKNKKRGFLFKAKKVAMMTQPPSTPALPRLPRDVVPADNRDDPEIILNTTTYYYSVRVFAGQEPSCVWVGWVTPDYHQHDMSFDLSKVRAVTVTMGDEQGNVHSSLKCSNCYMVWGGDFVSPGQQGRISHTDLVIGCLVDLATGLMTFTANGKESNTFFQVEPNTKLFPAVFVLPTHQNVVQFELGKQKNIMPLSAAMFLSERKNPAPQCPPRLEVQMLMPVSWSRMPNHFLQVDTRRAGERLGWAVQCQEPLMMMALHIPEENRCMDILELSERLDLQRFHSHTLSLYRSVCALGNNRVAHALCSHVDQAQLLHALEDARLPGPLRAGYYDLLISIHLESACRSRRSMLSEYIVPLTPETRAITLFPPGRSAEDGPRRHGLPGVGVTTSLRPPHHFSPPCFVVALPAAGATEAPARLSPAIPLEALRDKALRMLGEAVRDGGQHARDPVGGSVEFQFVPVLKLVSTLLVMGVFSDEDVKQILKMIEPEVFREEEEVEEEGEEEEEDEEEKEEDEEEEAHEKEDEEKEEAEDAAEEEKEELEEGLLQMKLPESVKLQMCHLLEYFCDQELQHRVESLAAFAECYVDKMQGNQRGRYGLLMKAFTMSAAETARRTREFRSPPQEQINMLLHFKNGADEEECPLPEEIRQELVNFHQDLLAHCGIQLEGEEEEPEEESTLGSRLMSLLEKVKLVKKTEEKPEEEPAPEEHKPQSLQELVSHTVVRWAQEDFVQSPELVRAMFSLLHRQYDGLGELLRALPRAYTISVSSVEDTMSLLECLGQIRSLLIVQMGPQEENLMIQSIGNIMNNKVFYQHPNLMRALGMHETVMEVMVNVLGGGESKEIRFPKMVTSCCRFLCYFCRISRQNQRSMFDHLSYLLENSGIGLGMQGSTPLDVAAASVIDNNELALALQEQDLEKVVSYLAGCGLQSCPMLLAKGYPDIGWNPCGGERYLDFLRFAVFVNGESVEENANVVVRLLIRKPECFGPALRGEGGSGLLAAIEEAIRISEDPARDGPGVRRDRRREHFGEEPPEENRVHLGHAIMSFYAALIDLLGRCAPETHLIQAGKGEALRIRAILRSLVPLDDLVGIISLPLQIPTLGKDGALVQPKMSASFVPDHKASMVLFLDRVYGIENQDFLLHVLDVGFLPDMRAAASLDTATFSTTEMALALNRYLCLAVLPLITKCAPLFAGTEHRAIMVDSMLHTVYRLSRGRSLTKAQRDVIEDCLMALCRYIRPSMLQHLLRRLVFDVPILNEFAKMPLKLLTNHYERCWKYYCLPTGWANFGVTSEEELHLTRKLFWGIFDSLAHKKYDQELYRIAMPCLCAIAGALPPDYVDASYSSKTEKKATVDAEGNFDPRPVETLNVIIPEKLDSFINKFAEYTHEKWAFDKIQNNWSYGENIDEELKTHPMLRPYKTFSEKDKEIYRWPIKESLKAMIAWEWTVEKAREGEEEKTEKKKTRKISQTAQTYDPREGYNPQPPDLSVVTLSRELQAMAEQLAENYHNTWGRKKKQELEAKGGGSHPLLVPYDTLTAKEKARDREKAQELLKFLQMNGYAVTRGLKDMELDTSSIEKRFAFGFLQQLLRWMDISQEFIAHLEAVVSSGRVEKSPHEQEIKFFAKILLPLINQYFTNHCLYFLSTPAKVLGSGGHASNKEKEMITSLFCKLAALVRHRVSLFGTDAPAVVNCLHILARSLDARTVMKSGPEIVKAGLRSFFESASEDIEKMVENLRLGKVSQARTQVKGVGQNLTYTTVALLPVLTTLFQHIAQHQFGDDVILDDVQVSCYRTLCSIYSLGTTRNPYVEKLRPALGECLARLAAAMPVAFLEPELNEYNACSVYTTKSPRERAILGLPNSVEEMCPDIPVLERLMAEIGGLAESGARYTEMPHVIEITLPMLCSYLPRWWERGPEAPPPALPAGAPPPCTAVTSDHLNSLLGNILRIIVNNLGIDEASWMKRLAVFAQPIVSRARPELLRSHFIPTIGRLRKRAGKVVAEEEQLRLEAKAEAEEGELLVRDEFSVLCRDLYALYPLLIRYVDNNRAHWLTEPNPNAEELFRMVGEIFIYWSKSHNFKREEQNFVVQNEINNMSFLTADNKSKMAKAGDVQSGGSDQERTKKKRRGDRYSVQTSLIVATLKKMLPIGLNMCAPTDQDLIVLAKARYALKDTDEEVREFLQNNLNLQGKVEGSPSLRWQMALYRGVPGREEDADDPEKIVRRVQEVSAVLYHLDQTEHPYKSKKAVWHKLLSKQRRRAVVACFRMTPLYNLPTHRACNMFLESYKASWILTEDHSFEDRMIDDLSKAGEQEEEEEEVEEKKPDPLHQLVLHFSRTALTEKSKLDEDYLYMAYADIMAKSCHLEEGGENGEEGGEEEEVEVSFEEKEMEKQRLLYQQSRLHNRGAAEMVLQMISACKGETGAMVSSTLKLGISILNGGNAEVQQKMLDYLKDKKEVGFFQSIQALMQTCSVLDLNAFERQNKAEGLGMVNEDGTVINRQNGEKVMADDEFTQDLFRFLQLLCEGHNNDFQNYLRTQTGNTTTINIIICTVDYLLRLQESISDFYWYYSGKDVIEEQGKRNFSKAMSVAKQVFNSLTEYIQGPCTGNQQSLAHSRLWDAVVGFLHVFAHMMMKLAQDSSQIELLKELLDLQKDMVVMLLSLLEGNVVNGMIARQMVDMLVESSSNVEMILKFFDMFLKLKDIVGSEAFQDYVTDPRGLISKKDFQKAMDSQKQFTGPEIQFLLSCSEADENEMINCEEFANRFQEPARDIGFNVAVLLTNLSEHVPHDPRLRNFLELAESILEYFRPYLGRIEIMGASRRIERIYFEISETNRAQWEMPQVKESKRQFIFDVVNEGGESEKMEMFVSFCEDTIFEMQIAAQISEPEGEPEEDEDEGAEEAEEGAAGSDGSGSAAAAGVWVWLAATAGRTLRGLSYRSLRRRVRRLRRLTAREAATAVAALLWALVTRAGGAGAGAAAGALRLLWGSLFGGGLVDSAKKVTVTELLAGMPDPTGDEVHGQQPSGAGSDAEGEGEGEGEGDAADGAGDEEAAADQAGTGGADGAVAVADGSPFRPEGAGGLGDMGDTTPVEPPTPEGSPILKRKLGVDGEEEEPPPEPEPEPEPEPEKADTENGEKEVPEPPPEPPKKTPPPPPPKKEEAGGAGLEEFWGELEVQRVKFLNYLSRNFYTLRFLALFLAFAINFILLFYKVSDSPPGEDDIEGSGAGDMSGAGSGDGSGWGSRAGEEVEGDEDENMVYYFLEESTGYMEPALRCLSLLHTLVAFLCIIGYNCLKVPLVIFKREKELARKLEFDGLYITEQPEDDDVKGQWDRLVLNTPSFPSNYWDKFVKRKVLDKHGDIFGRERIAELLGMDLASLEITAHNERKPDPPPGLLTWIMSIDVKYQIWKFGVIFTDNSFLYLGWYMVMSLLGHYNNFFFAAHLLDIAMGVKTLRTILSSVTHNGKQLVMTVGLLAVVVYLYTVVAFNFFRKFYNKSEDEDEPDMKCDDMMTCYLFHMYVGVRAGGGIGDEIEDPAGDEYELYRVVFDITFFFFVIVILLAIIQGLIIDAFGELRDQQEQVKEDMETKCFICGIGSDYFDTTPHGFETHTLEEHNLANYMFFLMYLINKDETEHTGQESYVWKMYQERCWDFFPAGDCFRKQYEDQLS

No constants are given. Whether binding was seen depends on the method and setting. In cells and extracts the contact can be indirect. Some results given as binding are weak or reduced against the parent protein; the word gives no strength.

The target of assay [1] is T1, MG53 (TRIM72, mitsugumin 53) (mouse (endogenous in murine skeletal muscle)) (UniProt Q1XH17).
T1 sequence: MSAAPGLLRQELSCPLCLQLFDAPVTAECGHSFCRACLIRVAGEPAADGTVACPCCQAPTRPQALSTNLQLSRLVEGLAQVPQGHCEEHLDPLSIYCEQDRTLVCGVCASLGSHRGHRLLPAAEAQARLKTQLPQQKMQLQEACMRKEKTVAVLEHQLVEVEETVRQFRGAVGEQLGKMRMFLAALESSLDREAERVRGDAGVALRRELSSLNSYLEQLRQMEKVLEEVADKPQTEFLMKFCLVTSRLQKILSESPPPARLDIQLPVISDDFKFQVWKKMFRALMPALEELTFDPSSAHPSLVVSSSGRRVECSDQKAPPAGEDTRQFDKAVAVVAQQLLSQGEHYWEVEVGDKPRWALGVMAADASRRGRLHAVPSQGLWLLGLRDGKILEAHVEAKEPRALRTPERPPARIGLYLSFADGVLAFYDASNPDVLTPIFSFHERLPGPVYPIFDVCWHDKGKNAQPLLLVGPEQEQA
Put plainly: co-IP; murine skeletal muscle lysate in RIPA lysis buffer, 1 mg protein; magnetic protein G beads with 2 ug antibody (MG53 or RyR; mouse and rabbit IgG as controls), 4 °C overnight, three washes in PBS; western blot; both directions. On the technique in general: In western blotting, separated proteins are transferred to a membrane and probed.

The target of assay [2] is ryanodine receptor 1 (RyR1) (mouse (endogenous in murine skeletal muscle)) (UniProt E9PZQ0). Described as above.

“ryanodine receptor 1 (RyR1) (from UniProt E9PZQ0 1-5035)”: the binding result in assay [1] is “binds”.

B1: MG53 (TRIM72, mitsugumin 53) (protein, UniProt Q1XH17 1-477)
chain: MSAAPGLLRQELSCPLCLQLFDAPVTAECGHSFCRACLIRVAGEPAADGTVACPCCQAPTRPQALSTNLQLSRLVEGLAQVPQGHCEEHLDPLSIYCEQDRTLVCGVCASLGSHRGHRLLPAAEAQARLKTQLPQQKMQLQEACMRKEKTVAVLEHQLVEVEETVRQFRGAVGEQLGKMRMFLAALESSLDREAERVRGDAGVALRRELSSLNSYLEQLRQMEKVLEEVADKPQTEFLMKFCLVTSRLQKILSESPPPARLDIQLPVISDDFKFQVWKKMFRALMPALEELTFDPSSAHPSLVVSSSGRRVECSDQKAPPAGEDTRQFDKAVAVVAQQLLSQGEHYWEVEVGDKPRWALGVMAADASRRGRLHAVPSQGLWLLGLRDGKILEAHVEAKEPRALRTPERPPARIGLYLSFADGVLAFYDASNPDVLTPIFSFHERLPGPVYPIFDVCWHDKGKNAQPLLLVGPEQEQA
For B1, the binding entry in assay [2] is recorded as “binds”.
